# Laboratory results: the supplement of paper PMC10849652
# Protein sequences, listed by entry. Tags and fused reporters are not part of them. Lines headed by an entry give the natural chain unless they say otherwise; changes in a name come on top.
# UniProt P56945: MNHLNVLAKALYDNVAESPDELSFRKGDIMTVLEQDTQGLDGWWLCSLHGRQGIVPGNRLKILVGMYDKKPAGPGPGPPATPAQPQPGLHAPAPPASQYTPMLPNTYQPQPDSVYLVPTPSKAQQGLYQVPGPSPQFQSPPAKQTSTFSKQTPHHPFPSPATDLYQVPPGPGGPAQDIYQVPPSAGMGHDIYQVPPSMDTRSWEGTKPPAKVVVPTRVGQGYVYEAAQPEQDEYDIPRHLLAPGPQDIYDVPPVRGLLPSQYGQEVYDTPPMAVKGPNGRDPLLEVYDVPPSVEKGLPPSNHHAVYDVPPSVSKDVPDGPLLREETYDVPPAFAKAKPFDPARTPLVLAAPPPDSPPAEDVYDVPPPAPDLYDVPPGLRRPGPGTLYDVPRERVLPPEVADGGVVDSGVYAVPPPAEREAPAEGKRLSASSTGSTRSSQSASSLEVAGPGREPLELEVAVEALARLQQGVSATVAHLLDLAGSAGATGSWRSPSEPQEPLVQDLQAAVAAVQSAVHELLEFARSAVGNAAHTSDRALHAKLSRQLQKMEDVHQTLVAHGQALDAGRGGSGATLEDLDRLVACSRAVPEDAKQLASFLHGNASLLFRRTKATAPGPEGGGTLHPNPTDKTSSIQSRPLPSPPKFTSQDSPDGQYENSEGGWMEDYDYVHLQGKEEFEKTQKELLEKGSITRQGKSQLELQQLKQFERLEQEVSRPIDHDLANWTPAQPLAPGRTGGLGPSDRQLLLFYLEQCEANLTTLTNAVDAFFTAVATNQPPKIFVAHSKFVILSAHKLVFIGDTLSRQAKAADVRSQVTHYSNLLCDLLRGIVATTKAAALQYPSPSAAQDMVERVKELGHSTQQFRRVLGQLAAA
# UniProt O95816: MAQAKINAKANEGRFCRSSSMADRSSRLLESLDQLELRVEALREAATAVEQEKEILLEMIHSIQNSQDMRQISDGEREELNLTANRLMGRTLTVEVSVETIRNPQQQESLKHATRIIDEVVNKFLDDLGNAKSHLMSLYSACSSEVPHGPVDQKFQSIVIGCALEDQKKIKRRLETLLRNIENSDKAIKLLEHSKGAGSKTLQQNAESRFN
# UniProt Q99728: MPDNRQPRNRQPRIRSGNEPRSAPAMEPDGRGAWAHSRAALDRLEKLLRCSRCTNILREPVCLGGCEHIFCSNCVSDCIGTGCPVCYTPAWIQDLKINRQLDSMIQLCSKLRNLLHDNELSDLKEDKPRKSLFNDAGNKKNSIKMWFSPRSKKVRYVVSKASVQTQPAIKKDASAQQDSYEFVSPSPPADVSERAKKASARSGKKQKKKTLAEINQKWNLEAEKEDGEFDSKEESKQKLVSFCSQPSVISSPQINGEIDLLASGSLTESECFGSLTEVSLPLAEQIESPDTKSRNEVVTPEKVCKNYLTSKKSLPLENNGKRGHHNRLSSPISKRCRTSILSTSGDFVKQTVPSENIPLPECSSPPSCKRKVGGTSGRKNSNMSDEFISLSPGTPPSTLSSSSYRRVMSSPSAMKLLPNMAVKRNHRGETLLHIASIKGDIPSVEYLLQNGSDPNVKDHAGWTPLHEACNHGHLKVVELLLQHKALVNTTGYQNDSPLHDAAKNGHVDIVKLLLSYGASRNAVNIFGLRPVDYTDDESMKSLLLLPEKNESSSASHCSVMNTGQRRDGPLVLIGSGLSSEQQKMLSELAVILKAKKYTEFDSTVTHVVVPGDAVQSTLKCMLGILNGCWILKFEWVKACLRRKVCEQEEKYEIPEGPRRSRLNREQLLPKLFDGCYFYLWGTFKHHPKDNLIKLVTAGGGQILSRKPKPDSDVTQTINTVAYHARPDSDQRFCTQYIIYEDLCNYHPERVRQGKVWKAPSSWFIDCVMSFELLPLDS
# UniProt O14981: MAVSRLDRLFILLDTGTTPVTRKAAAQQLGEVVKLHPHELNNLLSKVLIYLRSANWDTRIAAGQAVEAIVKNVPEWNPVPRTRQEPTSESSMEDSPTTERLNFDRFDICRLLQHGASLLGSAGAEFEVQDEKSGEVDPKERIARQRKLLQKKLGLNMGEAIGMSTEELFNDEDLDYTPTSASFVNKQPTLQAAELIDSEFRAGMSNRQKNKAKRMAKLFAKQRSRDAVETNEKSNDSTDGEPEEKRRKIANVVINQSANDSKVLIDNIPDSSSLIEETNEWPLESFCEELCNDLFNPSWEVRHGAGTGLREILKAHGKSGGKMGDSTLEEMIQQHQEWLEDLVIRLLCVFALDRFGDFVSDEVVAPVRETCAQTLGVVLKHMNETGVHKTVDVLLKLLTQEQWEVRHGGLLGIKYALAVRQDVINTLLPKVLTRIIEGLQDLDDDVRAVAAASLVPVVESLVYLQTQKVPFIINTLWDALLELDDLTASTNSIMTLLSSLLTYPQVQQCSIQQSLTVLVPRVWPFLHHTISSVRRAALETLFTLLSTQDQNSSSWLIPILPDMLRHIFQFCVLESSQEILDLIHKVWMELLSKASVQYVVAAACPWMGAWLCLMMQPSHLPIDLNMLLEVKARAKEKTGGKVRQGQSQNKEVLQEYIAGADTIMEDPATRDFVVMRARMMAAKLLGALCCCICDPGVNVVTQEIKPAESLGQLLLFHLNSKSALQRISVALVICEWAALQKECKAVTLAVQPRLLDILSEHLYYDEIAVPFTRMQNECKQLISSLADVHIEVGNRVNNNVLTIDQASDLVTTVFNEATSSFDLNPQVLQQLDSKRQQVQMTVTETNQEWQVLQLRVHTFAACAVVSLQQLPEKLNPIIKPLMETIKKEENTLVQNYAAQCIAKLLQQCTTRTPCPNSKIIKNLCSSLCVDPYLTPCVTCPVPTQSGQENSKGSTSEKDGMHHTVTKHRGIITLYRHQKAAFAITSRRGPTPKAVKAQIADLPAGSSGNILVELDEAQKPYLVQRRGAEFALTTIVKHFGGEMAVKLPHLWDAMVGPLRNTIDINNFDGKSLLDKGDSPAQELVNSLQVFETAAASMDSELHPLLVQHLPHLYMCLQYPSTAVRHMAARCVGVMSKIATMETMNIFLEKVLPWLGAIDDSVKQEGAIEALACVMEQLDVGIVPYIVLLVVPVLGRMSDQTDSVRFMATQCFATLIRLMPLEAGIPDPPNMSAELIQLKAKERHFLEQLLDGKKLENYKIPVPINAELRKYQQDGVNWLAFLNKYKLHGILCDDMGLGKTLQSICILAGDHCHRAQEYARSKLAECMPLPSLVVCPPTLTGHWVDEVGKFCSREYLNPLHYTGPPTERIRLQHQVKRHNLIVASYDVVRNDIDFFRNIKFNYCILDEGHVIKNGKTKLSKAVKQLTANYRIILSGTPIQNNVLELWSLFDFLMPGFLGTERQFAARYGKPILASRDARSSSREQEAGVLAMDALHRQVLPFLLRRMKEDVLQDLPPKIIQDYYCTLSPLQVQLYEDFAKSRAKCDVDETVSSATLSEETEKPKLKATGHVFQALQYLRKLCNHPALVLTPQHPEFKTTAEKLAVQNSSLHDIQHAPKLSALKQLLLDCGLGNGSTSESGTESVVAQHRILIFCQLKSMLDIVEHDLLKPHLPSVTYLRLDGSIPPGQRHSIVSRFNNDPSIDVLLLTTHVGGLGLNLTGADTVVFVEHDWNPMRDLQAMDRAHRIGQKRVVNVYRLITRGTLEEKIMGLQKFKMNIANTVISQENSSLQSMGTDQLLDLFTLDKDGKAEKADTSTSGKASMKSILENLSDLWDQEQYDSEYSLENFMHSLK
# UniProt P35613: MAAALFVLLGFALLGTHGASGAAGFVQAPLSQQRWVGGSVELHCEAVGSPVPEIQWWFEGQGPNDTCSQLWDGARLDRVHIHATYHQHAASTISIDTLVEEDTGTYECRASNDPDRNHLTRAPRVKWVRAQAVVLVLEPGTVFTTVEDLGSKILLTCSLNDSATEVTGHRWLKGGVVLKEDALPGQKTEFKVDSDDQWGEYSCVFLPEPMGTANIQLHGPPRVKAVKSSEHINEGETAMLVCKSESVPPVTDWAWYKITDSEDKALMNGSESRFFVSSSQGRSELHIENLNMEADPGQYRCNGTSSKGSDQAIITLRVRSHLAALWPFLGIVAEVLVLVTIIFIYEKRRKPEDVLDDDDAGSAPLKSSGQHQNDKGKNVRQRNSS
# UniProt O75934: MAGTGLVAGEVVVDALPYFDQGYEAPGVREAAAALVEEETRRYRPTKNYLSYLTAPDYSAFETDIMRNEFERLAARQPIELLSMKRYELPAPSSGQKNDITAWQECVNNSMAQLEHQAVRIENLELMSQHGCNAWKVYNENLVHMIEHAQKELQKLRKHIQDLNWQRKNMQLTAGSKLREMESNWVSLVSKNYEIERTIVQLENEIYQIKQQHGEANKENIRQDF
# UniProt P21953: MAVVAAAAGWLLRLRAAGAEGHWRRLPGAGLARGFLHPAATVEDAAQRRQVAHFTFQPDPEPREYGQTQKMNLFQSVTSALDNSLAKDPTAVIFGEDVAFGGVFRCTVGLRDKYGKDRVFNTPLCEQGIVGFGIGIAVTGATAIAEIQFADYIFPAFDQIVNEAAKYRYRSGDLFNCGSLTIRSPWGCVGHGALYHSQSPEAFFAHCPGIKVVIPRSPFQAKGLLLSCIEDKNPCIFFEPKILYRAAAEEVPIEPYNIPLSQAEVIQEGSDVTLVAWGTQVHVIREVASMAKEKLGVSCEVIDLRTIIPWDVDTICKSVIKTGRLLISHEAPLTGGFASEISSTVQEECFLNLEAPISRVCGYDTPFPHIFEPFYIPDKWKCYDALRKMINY
# UniProt P55957: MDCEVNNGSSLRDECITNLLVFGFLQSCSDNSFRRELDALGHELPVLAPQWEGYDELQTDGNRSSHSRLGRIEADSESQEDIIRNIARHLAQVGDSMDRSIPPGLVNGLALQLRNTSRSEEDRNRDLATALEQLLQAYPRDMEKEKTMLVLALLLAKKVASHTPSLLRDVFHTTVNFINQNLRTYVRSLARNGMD
# UniProt Q9BXK5, whole entry, looked up: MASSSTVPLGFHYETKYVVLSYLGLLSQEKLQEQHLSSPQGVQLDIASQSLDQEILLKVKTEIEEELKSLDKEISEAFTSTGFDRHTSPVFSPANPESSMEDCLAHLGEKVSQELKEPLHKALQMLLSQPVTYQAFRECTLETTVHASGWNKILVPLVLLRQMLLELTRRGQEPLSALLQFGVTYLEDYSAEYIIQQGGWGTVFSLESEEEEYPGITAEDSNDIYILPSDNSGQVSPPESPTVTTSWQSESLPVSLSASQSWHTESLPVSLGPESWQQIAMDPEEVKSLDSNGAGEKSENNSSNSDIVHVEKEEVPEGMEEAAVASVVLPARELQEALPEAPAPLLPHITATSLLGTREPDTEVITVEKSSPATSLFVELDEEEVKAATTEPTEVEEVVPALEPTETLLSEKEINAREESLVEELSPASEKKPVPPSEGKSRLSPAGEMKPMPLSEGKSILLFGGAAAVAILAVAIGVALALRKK
# UniProt Q6QNY0: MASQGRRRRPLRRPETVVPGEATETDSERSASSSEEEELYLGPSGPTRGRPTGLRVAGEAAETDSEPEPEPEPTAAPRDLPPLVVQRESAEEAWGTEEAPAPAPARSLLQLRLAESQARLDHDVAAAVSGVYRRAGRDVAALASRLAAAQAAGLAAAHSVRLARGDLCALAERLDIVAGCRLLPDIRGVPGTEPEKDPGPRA
# The other results are listed elsewhere or left out.
# Compound: CC1=CC=C(C=C1)SC2=C3C=C(SC3=CN=C2)C(=O)N
# Assay: log2 fold change, soluble protein after heating vs DMSO (PISA); higher = thermal stabilisation; K562 lysate, 10 uM; active = over 0.2 and 3.5 SD of the protein, either way, in both replicates (recomputed)
# Outline: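 Soluble protein was defined as the supernatant remaining after 21,000xg for 90 min, following pooling of heated aliquots and adjustment to 0.5% NP-40 at 4°C. Before that, crude K562 extract at 1 mg/mL protein in PBS pH 7.4 with 1 mM MgCl2 was treated with 10 μM compound for 30 min and heated for 3 min across 48°C-58°C. Quantification used TMTpro 16plex LC-MS/MS with channel sums equalised, and values are log-two fold changes in thermal stability relative to solvent controls from duplicates.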
row,Target,log2 fold change
1,BCAR1 isoform 6 (UniProt P56945),inactive: -0.033
2,BAG2 (UniProt O95816),inactive: -0.007
3,BARD1 (UniProt Q99728),inactive: 0.01
4,BTAF1 (UniProt O14981),inactive: -0.012
5,BSG (UniProt P35613),inactive: 0.028
6,BCAS2 (UniProt O75934),inactive: 0.009
7,BCKDHB (UniProt P21953),inactive: 0.024
8,BTF3L4 (UniProt Q96K17),inactive: 0.021
9,BID isoform 2 (UniProt P55957),inactive: -0.013
10,BCL2L13 (UniProt Q9BXK5),inactive: -0.039
11,BCKDK (UniProt O14874),inactive: 0.059
12,BLOC1S3 (UniProt Q6QNY0),inactive: -0.015

# Taken from above:
# For log2 fold change, BTF3L4 (UniProt Q96K17) has the entry inactive: 0.021
# For log2 fold change, BCAR1 isoform 6 (UniProt P56945) has the entry inactive: -0.033
